# Reference: patent US7390875B2 (Institut Pasteur de Lille, priority 2000, dated 2008)
# Key:
# [1] = general procedure: Fmoc solid-phase peptide synthesis; Fmoc-PAL-PEG-PS; HBTU/HOBt/DIEA; settings: whole synthesis
# [2] = general procedure: Fmoc solid-phase peptide synthesis; Fmoc-Lys(Boc2NN(Boc)CH2CO)-PAL-PEG-PS; Fmoc-PAL-PEG-PS; Rink amide MBHA PS; Rink amide AM-PS; HBTU/HOBt/DIEA; settings: whole synthesis; for final purity (method not given): scale of the general procedure 0.1-0.25 mmole; for isolated mass / isolated yield: scale 0.25 mmole
# [3] = general procedure: Fmoc solid-phase peptide synthesis; Rink amide resin MBHA PS; HBTU/HOBt/DIEA; settings: whole synthesis
substance,measurement,setting,value
Ac-K(COCH2NHNH2)-ISQAVHAAHAEINEAGR-NH2,isolated mass,[1]; scale 0.10 mmole,74 mg
same,isolated yield,[1]; scale 0.10 mmole,yield 30%
H-SVRPKVPLRAMTYKLAIDMSHFIKEKK(COCH2NHNH2)-NH2,final purity (method not given),[2],100%
H-YTYEAYARYPEELEASQACQRKRLEEGK(COCH2NHNH-2)-NH2,final purity (method not given),[2],93%
H-DWQDYTSGPGIRYPKTFGWLWKLVK(COCH2NHNH2)-NH2,final purity (method not given),[2],90%
H2NNHCH2CO-K(COCH2NHNH2)-AKFEVNNPQVQRQAFNELIR-VVHQLLPESSLRKRKRSR-NH2,isolated mass,[3],16.1 mg
same,isolated yield,[3]; scale of the general procedure 0.1-0.25 mmole,yield 8.5%
H-K(COCH2PSRENQNAVKIQKLSVVLRREQKHRVERLAFRNQSLPF-NH2,isolated mass,[1]; scale 0.1 mmole,120 mg
same,isolated yield,[1]; scale 0.1 mmole,20%
Ac-QYIKANSKFIGITELKK K(COCH2NHNH2)-NH2,final purity (method not given),[2],97%
H-EKGGLEGIYYSARRHRILDMYLEK(COCH2NHNH2)-NH2,final purity (method not given),[2],93%
H2N—VYKAL-NH2,isolated mass,[2],27.8 mg
same,isolated yield,[2],13.3%
H-KVGFFKR-NH2,isolated mass,[2],123 mg
same,isolated yield,[2],36%
H-SKWDDPWGEVLAWKFDPTLAYTYEAK(COCH2NHNH2)-NH2,final purity (method not given),[2],99%
H-K(COCH2NHNH2)AKFEVNNPQVQRQAFNELIRVVHQLLPESSLRKRKRSR-NH2,isolated mass,[1]; scale 0.1 mmole,158 mg
same,isolated yield,[1]; scale 0.1 mmole,26%
H-K(COCH2NHNH2)GAVVGGLGGYMLGSAMSR-NH2,crude mass,[1]; scale 0.2 mmole,360 mg
same,isolated mass,[1]; scale 0.2 mmole,117 mg
